The target in the experiment is wild type VAT (Thermoplasma acidophilum) (Thermoplasma acidophilum) (UniProt O05209). Kind of experiment: SEC; wild type and mutant protein mixed at different ratios, 15 μM protomer in 6 M guanidine hydrochloride, refolded by 1:20 dilution into 50 mM HEPES pH 7.5, 200 mM NaCl, 0.5 M arginine; concentrated; hexamer fractions collected; both purified.

The chains behind the UniProt entries cited, without tags or fusion partners. Where a name states a change or a piece, a line headed by the entry shows the natural chain unless it says otherwise.
UniProt O05209: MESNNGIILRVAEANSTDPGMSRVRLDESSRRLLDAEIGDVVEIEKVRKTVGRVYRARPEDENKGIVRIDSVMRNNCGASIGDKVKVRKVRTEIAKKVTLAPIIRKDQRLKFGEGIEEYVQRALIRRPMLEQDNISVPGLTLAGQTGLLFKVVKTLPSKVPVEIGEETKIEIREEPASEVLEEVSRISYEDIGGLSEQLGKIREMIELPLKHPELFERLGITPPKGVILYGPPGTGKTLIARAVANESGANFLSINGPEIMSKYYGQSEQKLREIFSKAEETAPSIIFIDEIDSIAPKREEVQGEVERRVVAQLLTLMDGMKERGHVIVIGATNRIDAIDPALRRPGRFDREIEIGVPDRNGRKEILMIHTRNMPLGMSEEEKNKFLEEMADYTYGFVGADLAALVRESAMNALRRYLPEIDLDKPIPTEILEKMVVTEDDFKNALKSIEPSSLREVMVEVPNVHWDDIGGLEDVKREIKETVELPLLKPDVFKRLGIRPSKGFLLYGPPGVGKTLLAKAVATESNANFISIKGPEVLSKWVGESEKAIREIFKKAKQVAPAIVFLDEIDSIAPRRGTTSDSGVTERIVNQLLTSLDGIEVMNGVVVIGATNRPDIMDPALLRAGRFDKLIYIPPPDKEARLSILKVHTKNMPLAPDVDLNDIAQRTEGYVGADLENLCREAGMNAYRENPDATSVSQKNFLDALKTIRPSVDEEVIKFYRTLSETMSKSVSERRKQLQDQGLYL

Drawing on publication PMC5423775, “Structure of a AAA+ unfoldase in the process of unfolding substrate” (eLife, 2017), this text covers binding for one substance.

No constants are given. Whether binding was seen depends on the method and setting. A result given as binding can be weak or reduced; the word gives no strength.

With “catalytically inactivated VAT E291Q,E568Q (Walker B mutant) (from UniProt O05209) (enzyme)”, the binding result was “binds”.
